{"source": "patent US10654845B2", "about": "“2-(het)aryl-substituted fused bicyclic heterocycle derivatives as pesticides” (BAYER CROPSCIENCE AKTIENGESELLSCHAFT, priority 2015, dated 2020)", "assay": "log P by HPLC on reversed-phase column (C18), EEC Directive 79/831 Annex V.A8", "excerpt": "Called log P (HCOOH) in the table.\nCalled log P (neutral) in the table."}
{"smiles": "CCS(=O)(=O)c1ccc([S+](C)[O-])nc1-c1nc2cc(C(F)(F)F)ncc2n1C", "note": "(centres unmarked) [Example 44]", "values": [{"measurement": "logP-acidic", "setting": "LC-MS acidic range, pH 2.7 (HCOOH), C18, 55° C.", "result": 1.81}, {"measurement": "logP-neutral", "setting": "LC-MS neutral range, pH 7.8, C18, 55° C.", "result": 1.81}]}
